Publication PMC9842712, “Cryo-EM structure of hnRNPDL-2 fibrils, a functional amyloid associated with limb-girdle muscular dystrophy D3” (Nature Communications, 2022)
Results are given in words; binding and its absence hold for the method and conditions named. Some entries that bind do so weakly or less than the wild type.

Columns and labels:
hnRNPDL-2 D259H (human) = hnRNPDL-2 D259H (human) (UniProt O14979); assay: ultracentrifugation through a 20% glycerol cushion, SDS-PAGE of fractions + negative-stain TEM of the bottom fraction; incubated samples (same conditions as for the WT fibrils), 120,000 x g, 2 h, 4 °C; six fractions from top to bottom; both purified
hnRNPDL-2 D259N (human) = hnRNPDL-2 D259N (human) (UniProt O14979); assay: as above
[1] = target: hnRNPDL-3 (human heterogeneous ribonucleoprotein D-like, isoform 3) (human) (UniProt O14979); assay: Thioflavin-T fluorescence + negative-stain TEM; 50 µM protein in 50 mM HEPES, 300 mM NaCl, pH 7.5, 37 °C, 600 rpm; read after 24 h, 48 h and 7 days; also 50 and 600 mM NaCl; both purified

B1: hnRNPDL-2 D259H (protein, UniProt O14979-2 1-301)
chain: MEDMNEYSNIEEFAEGSKINASKNQQDDGKMFIGGLSWDTSKKDLTEYLSRFGEVVDCTIKTDPVTGRSRGFGFVLFKDAASVDKVLELKEHKLDGKLIDPKRAKALKGKEPPKKVFVGGLSPDTSEEQIKEYFGAFGEIENIELPMDTKTNERRGFCFITYTDEEPVKKLLESRYHQIGSGKCEIKVAQPKEVYRQQQQQQKGGRGAAAGGRGGTRGRGRGQGQNWNQGFNNYYDQGYGNYNSAYGGDQNYSGYGGYHYTGYNYGNYGYGQGYADYSGQQSTYGKASRGGGNHQNNYQPY
- binding (hnRNPDL-2 D259H (human)): binds weakly

B2: hnRNPDL-2 D259N (protein, UniProt O14979-2 1-301)
chain: MEDMNEYSNIEEFAEGSKINASKNQQDDGKMFIGGLSWDTSKKDLTEYLSRFGEVVDCTIKTDPVTGRSRGFGFVLFKDAASVDKVLELKEHKLDGKLIDPKRAKALKGKEPPKKVFVGGLSPDTSEEQIKEYFGAFGEIENIELPMDTKTNERRGFCFITYTDEEPVKKLLESRYHQIGSGKCEIKVAQPKEVYRQQQQQQKGGRGAAAGGRGGTRGRGRGQGQNWNQGFNNYYDQGYGNYNSAYGGDQNYSGYGGYNYTGYNYGNYGYGQGYADYSGQQSTYGKASRGGGNHQNNYQPY
- binding (hnRNPDL-2 D259N (human)): binds weakly

B3: hnRNPDL-3 (human heterogeneous ribonucleoprotein D-like, isoform 3) (protein, UniProt O14979-3 1-244)
chain: MEDMNEYSNIEEFAEGSKINASKNQQDDGKMFIGGLSWDTSKKDLTEYLSRFGEVVDCTIKTDPVTGRSRGFGFVLFKDAASVDKVLELKEHKLDGKLIDPKRAKALKGKEPPKKVFVGGLSPDTSEEQIKEYFGAFGEIENIELPMDTKTNERRGFCFITYTDEEPVKKLLESRYHQIGSGKCEIKVAQPKEVYRQQQQQQKGGRGAAAGGRGGTRGRGRGQQSTYGKASRGGGNHQNNYQPY
- binding [1]: no binding (tested: 50 µM)
